The target in experiment [1] is SNAPf-GLP-1R-SmBiT (human) (UniProt P43220). The experiment can be described thus: split reporter.
The target in experiment [2] is T1, SNAP-GLP-1R (INS-1 832/3 stable line) (human), P43220.
T1 chain: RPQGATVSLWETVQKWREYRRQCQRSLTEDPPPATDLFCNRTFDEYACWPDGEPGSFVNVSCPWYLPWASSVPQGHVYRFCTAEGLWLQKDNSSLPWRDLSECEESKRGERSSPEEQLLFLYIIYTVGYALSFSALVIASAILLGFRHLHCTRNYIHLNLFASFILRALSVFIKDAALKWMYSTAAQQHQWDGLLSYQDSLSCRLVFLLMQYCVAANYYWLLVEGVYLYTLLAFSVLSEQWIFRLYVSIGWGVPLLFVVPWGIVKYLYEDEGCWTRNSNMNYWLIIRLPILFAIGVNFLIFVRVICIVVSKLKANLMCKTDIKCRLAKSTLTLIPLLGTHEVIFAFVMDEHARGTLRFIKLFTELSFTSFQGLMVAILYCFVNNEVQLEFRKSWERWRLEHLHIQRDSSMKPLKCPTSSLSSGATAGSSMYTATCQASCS
The experiment in a line: FRET or BRET. The settings on record: remark: other sources report otherwise. (BRET reads energy transfer from a luciferase to a nearby fluorophore.)

Amino acid sequences for entries named in this document (tags omitted).
UniProt P32121: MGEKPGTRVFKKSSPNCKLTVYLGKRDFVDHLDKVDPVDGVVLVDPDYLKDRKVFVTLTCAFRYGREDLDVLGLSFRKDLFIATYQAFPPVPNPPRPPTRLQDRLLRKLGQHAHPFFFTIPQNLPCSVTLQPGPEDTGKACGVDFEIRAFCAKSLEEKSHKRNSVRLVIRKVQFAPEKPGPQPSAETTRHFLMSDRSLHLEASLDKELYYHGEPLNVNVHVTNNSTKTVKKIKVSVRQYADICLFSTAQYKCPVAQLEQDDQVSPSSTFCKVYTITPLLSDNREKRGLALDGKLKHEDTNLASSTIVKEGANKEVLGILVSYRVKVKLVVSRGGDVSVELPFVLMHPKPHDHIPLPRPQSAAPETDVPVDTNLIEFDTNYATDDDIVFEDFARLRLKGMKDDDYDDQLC

Binding data for two molecules are collected here from doi:10.1101/2021.11.24.469908.

These are yes or no findings as the source states them, for the method shown. In cells and extracts the contact can be indirect. Some binding calls cover weakened binding; strength is not graded here.

With “LgBiT-β-arrestin-2 (from UniProt P32121 1-409)”, the binding result in experiment [1] was “binds”.

B1: SNAP-GLP-1R (INS-1 832/3 stable line), P43220 24-463 (receptor)
chain: T1 chain
B1: the binding result in experiment [2] was “binds”.
